Laboratory results: PMC7181697
Results are given in words; binding and its absence hold for the method and conditions named. For some of these results: In cells and extracts the contact can be indirect. Some entries that bind do so weakly or less than the wild type. For some of these results: Tags and fused reporters may be left off the sequences shown.

By UniProt entry, the sequences of proteins in these tests, tags left out. Where a name states a change or a piece, a line headed by the entry shows the natural chain unless it says otherwise.
UniProt Q9UI95: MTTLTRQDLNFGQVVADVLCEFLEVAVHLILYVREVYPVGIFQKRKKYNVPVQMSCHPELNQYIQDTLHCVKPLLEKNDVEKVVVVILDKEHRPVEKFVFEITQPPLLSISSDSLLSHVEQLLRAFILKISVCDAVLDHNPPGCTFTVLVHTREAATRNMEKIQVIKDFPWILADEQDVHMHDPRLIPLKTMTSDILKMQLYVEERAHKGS
UniProt Q9UBT6: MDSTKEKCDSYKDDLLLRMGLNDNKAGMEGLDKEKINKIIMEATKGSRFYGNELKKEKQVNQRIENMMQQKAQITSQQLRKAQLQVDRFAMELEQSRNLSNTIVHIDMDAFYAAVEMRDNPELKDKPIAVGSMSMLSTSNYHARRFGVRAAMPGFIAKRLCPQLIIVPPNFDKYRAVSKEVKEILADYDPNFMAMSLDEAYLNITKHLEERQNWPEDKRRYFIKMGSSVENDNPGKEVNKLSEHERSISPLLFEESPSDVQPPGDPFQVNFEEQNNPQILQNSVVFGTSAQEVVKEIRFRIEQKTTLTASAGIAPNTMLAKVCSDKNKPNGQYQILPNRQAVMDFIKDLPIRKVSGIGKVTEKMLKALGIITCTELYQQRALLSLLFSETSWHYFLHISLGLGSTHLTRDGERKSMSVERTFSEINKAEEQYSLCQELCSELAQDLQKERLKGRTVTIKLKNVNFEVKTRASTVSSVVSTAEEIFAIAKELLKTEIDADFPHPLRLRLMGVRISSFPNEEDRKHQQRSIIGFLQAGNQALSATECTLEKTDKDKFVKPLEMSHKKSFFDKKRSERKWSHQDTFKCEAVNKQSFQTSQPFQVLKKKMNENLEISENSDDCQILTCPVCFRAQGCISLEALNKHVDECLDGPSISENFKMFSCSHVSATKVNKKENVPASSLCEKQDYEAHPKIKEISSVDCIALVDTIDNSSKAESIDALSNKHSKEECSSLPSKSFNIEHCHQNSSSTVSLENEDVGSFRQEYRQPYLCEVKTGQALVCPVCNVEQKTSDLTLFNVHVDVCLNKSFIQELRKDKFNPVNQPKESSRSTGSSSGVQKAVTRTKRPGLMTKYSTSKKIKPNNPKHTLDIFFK

Key:
[1] = target: REV7 (full length, wild type) (human) (UniProt Q9UI95); experiment: crystal structure; REV7, SHLD3(1-64) and SHLD2(1-52) co-expressed and co-purified; sitting drop, 0.02 M magnesium chloride hexahydrate, 0.1 M HEPES 7.5, 22% w/v poly(acrylic acid sodium salt) 5100, 20 °C, 5 mg/ml; both purified
REV7^E35A (human) [2] = target: REV7^E35A (human) (UniProt Q9UI95); experiment: SEC; Superdex 200 Increase 10/300 GL, 20 mM Tris/HCl pH 8.0, 150 mM NaCl, 1% glycerol, 1 mM TCEP; proteins mixed and incubated 10 min on ice; 0.5 ml fractions on SDS-PAGE, Coomassie; both purified
REV7^K190A (human) = REV7^K190A (human) (UniProt Q9UI95); experiment: SEC-MALS; co-expressed and co-purified REV7-SHLD3(1-82) samples; 100 μl at 5 mg/ml, WTC-015S5 column, 20 mM Tris-HCl pH 8.0, 150 mM NaCl, 1% glycerol, 1 mM TCEP, 0.01% NaN3; both purified
REV7^K129A (human) = REV7^K129A (human) (UniProt Q9UI95); experiment: as above
[3] = target: REV7 (full length, wild type) (human) (UniProt Q9UI95); experiment: as above
REV7^W171A (human) = REV7^W171A (human) (UniProt Q9UI95); experiment: as above
REV7^Y63A (human) = REV7^Y63A (human) (UniProt Q9UI95); experiment: as above
REV7^R124A (human) = REV7^R124A (human) (UniProt Q9UI95); experiment: as above
REV7^E35A (human) [4] = target: REV7^E35A (human) (UniProt Q9UI95); experiment: as above
REV7^K44A (human) = REV7^K44A (human) (UniProt Q9UI95); experiment: as above
[5] = target: REV7^K44A-SHLD3(38–82) (human) (UniProt Q9UI95+Q6ZNX1); experiment: ITC; ITC200, 25 °C, 20 mM Tris pH 8.0, 150 mM NaCl, 1% glycerol, 1 mM TCEP; one set of sites model; both purified
[6] = target: REV7^WT-REV3(1871–2021) (human) (UniProt Q9UI95+O60673); experiment: as above
[7] = target: REV7^K44A-SHLD3(1–82) (human) (UniProt Q9UI95+Q6ZNX1); experiment: as above
SHLD3(1-64) (human) = target: T1, SHLD3(1-64) (human) (UniProt Q6ZNX1); experiment: crystal structure; REV7, SHLD3(1-64) and SHLD2(1-52) co-expressed and co-purified; sitting drop, 0.02 M magnesium chloride hexahydrate, 0.1 M HEPES 7.5, 22% w/v poly(acrylic acid sodium salt) 5100, 20 °C, 5 mg/ml; both purified
T1 sequence: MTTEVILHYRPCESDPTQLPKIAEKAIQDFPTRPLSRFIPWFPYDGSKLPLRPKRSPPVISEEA

Flag-REV7^W171A (human) = Flag-REV7^W171A (human) (UniProt Q9UI95); experiment: co-IP; Flag-REV7 mutants, S-tag-HA-SHLD3 and GFP-REV3(1042-1251 + 1847-2021) co-expressed in HEK293FT cells; DMSO or 1 μM doxorubicin for 24 h; NP-40 lysis buffer; anti-Flag agarose, 4 °C, 4 h; immunoblot
Flag-REV7^Y63A (human) = Flag-REV7^Y63A (human) (UniProt Q9UI95); experiment: as above
S-tag-HA-SHLD3 (human) = target: T2, S-tag-HA-SHLD3 (human) (UniProt Q6ZNX1); experiment: pull-down; S-tag-HA-SHLD3 and GFP-REV3(1847-2021) co-expressed in HEK293T cells; DMSO or 1 μM doxorubicin for 24 h; NP-40 lysis buffer; S-protein agarose, 4 °C, 3 h; immunoblot
T2 sequence: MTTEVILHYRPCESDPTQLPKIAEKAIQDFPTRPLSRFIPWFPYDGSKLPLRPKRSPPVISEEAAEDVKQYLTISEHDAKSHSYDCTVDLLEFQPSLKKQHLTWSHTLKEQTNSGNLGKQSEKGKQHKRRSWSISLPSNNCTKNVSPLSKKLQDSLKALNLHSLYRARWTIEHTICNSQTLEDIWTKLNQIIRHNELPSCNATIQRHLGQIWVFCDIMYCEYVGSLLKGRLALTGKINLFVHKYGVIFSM

B1: SHLD3(1-64) (domain or fragment, UniProt Q6ZNX1 1-64)
chain: T1 sequence
Which binding [1] does the source give for B1 here?
The binding was “binds”.

B2: SHLD3(1–82), untagged, co-expressed with REV7 (domain or fragment, UniProt Q6ZNX1 1-82)
chain: MTTEVILHYRPCESDPTQLPKIAEKAIQDFPTRPLSRFIPWFPYDGSKLPLRPKRSPPVISEEAAEDVKQYLTISEHDAKSH
For B2, which binding (REV7^E35A (human) [2]) is on record?
The binding was “binds”.

And the binding (REV7^K190A (human))?
The binding was “binds”.

And the binding (REV7^K129A (human))?
Its binding is “binds”.

And the binding [3]?
The binding was “binds”.

What about the binding (REV7^W171A (human)) of the same binder?
Its binding is “binds”.

And the binding (REV7^Y63A (human))?
Its binding is “binds”.

What about the binding (REV7^R124A (human)) of the same binder?
The binding was “binds”.

What about the binding (REV7^E35A (human) [4]) of the same binder?
Its binding is “binds”.

And the binding (REV7^K44A (human))?
Its binding is “binds”.

B3: cREV1 CTD (chimeric REV1 CTD: POL κ RIR fused to the N-terminus of REV1 CTD) (protein, UniProt Q9UBT6 562-577; Q9UBZ9 1140-1251)
chain: SHKKSFFDKKRSERKWGLSSLQSDPAGCVRPPAPNLAGAVEFNDVKTLLREWITTISDPMEEDILQVVKYCTDLIEEKDLEKLDLVIKYMKRLMQQSVESVWNMAFDFILDNVQVVLQQTYGSTLKVT
Which results are given for B3?
binding [5]: no binding; binding [6]: binds; binding [7]: no binding

B4: SHLD2(1-52) (domain or fragment, UniProt Q86V20 1-52)
chain: MSGGSQVHIFWGAPIAPLKITVSEDTASLMSVADPWKKIQLLYSQHSLYLKD
How did the binding (SHLD3(1-64) (human)) turn out when B4 was run?
Its binding is “binds”.

And the binding [1]?
Its binding is “binds”.

B5: S-tag-HA-SHLD3 (protein, UniProt Q6ZNX1 1-250)
chain: T2 sequence
How did the binding (Flag-REV7^W171A (human)) turn out when B5 was run?
The binding was “binds”.

What about the binding (Flag-REV7^Y63A (human)) of the same binder?
Its binding is “binds”.

B6: GFP-tagged REV3(1042–1251 + 1847–2021) (domain or fragment, UniProt O60673 1042-1251; O60673 1847-2021)
chain: PKKSHRRKSKHKSAKKKTGKQQRTNNENIKRTLSFRKKRSHAILSPPSPSYNAETEDCDLNYSDVMSKLGFLSERSTSPINSSPPRCWSPTDPRAEEIMAAAEKEAMLFKGPNVYKKTVNSRIGKTSRARAQIKKSKAKLANPSIVTKKRNKRNQTNKLVDDGKKKPRAKQKTNEKGTSRKHTTLKDEKIKSQSGAEVKFVLKHQNVSEFMLTPTPDSSPRSTSSPSQSKNGSFTPRTANILKPLMSPPSREEIMATLLDHDLSETIYQEPFCSNPSDVPEKPREIGGRLLMVETRLANDLAEFEGDFSLEGLRLWKTAFSAMTQNPRPGSPLRSGQGVVNKGSSNSPKMVEDKKIVIMPCKCAPSRQLVQVWLQAKEEYERSKK
B6 was tested. Which binding (Flag-REV7^W171A (human)) did it give?
The binding was “binds”.

B7: GFP-tagged REV3(1847–2021) (domain or fragment, UniProt O60673 1847-2021)
chain: MLTPTPDSSPRSTSSPSQSKNGSFTPRTANILKPLMSPPSREEIMATLLDHDLSETIYQEPFCSNPSDVPEKPREIGGRLLMVETRLANDLAEFEGDFSLEGLRLWKTAFSAMTQNPRPGSPLRSGQGVVNKGSSNSPKMVEDKKIVIMPCKCAPSRQLVQVWLQAKEEYERSKK
B7 was tested. Which binding (S-tag-HA-SHLD3 (human)) did it give?
The binding was “binds”.
